Source: PubChem BioAssay AID504523 (Broad Institute, 2011)
About 490 (0.14%) of roughly 340,000 compounds were called active. This list was built around the results that the source calls inconclusive (neither active nor inactive); the mix of calls is not that of the screen. Rule as the data show it: active = inhibition above about 12%; inconclusive = no clear call, values can overlap the other calls; inactive = below about 7.3%.

Amino acid sequences for entries named in this document (tags omitted).
UniProt Q14145, whole entry, looked up: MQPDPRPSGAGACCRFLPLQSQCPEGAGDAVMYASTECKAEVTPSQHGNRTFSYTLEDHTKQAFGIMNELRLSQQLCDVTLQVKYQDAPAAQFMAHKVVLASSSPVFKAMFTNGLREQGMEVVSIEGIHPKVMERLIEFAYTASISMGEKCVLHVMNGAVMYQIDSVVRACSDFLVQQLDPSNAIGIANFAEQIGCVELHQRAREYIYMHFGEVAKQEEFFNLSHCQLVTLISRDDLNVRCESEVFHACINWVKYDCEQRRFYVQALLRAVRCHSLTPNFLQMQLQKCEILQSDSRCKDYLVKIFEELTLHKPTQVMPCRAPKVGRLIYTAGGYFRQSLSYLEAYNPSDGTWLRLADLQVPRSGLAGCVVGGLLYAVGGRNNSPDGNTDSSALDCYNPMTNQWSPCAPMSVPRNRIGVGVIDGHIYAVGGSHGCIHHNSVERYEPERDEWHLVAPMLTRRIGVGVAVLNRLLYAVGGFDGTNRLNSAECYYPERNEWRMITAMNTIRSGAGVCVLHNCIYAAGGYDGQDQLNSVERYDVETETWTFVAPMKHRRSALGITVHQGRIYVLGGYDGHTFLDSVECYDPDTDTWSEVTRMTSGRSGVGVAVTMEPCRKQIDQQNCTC

Target: Kelch-like ECH-associated protein 1 (Homo sapiens) (UniProt Q14145)
Assay: disruptors of Keap1 binding to Nrf2 – biochemical, fluorescence polarization, single point, primary screen (AID 504523);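 also: human Keap1 Kelch domain with fluorescein labeled Nrf2 9mer peptide probe; 0% = neutral control wells and 100% = peptide positive control; higher means more block of Keap1 binding to Nrf2 peptide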
Settings: Keap1 Kelch-Nrf2 peptide fluorescence polarization, 1536-well; at 9.4 µM; active compounds read high

| Compound | inhibition |
| --- | --- |
| O=C(NC(=S)NC1CCCCC1)c1ccc(F)cc1 | inactive: -5.34% |
| O=C(CCN1C(=O)/C(=C/c2ccccc2Cl)SC1=S)Nc1cccnc1 | inconclusive: 9.51% |
| Cc1nn(-c2ccccc2Cl)c(Cl)c1/C=N/Nc1nc2ccccc2s1 | active: 34.2% |
| CCN(CC)c1ccc2cc(-c3nc(-c4cc5ccccc5oc4=O)cs3)c(=O)oc2c1 | inactive: -8.39% |
| CSc1ccc(/C=C/C(=O)c2ccc(NC(C)=O)cc2)cc1 | inactive: -2.96% |
| O=C(N/N=C/c1ccc(-c2ccc([N+](=O)[O-])cc2)o1)[C@H]1C[C@@H]1c1ccccc1 | inconclusive: 10.5% |
| COc1ccc(CCN(Cc2nc3ccccc3c(=O)[nH]2)C(=O)C2CC2)cc1 | inconclusive: 8.7% |
| C#CCOCCOCCOCCNc1nc(N2CCN(C(=O)CCCCCCCCCCNC(=O)Cn3cc(CCCCCN)nn3)CC2)nc(N2CCN(C(=O)CCCCCCCCCCNC(=O)Cn3cc(CCCCCN)nn3)CC2)n1 | inactive: -29.3% |
| O=C(O)C(=O)/C(=C\c1ccc(Cl)cc1)c1ccc2ccccc2n1 | inconclusive: 8.94% |
| O=C(Cc1ccc(NS(=O)(=O)c2ccc(F)cc2)cc1)NCc1ccccc1 | inactive: -2.96% |
| COc1ccc(Cl)cc1NC(=O)COC(=O)c1c(-c2ccccc2)noc1C | inconclusive: 9.34% |
| CCOc1ccc(Br)cc1S(=O)(=O)Nc1cccc(S(=O)(=O)Nc2ccccc2C(=O)O)c1 | inconclusive: 9.36% |
| O=C(CSc1nnc(Cc2cc(=O)[nH]c(=O)[nH]2)n1-c1ccc(Cl)cc1)NCC1CCCO1 (configuration not stated) | inconclusive: 7.88% |
| Cc1ccc2c(c1)C1CN(C)CCC1N2C(=S)NC(=O)c1ccc(Cl)cc1Cl (configuration not stated) | inconclusive: 9.26% |
| CCN1CCN(Cc2ccc(NC(=O)c3ccc(C)c(NC(=O)c4ccc5n[nH]nc5c4)c3)cc2C(F)(F)F)CC1 | inconclusive: 10.5% |
| N#CC12COC3(CCCCC3C1(C#N)C#N)OC2=N (configuration not stated) | inconclusive: 11.9% |
| C=CCOc1ccc2c(c1)c(=O)cc(C(=O)O)n2CC | inconclusive: 7.81% |
| O=C(OCc1cc(=O)n2c(n1)sc1ccccc12)c1cccc(O)c1 | inactive: 0.272% |
| CSc1nnc(Cn2c(=O)sc3ccccc32)n1CCc1ccccc1 | inconclusive: 6.23% |
| Nc1nc(SCC(=O)Nc2cc(C(F)(F)F)ccc2N2CCOCC2)n[nH]1 | active: 14.3% |
| COc1ccc(C(=O)C2CCCN(Cc3cn[nH]c3-c3ccccc3)C2)cc1OC (configuration not stated) | inactive: 2.52% |
| O=C(Nc1ccc(-n2cnnn2)cc1)c1cc(S(=O)(=O)N2CCCC2)ccc1Cl | inactive: 0.781% |

An excerpt from above in order of formula weight, high to low.

| Compound | inhibition |
| --- | --- |
| Cc1nn(-c2ccccc2Cl)c(Cl)c1/C=N/Nc1nc2ccccc2s1 | active: 34.2% |
| O=C(O)C(=O)/C(=C\c1ccc(Cl)cc1)c1ccc2ccccc2n1 | inconclusive: 8.94% |
| C=CCOc1ccc2c(c1)c(=O)cc(C(=O)O)n2CC | inconclusive: 7.81% |
